Measured data: PubChem BioAssay AID743121 (NCATS, 2013)

Test: 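Partners whose loss is lethal together with topoisomerase I blockade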 (primary screen)
System: MDA-MB-231 cells, a human breast cancer line
Reagent: single siRNA against human genes, 20 nM siRNA (0.8 pmol per well)
Duration: 120 h (drug added 48 h after transfection, read 72 h later)
Conditions: camptothecin 20 nM (about EC30) for 72 h; vehicle 0.1% DMSO in parallel plates
Measurement: 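CellTiter-Glo ATP signal, scaled to control siRNA as percent viability; sensitisation given as log2 of untreated divided by camptothecin-treated viability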
Reading the numbers: log2 vehicle/camptothecin viability: higher = stronger sensitisation to camptothecin
Rule for the call: 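Active genes have an RSA gene-level p-value below 0.001, computed from the ratios of their separate siRNAs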
Here is an unselected part of about 26,000 deposited reagents. 167 of all reagents (0.63%) were called active. 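Calls are per gene from RSA p-values that are not deposited; an individual active-marked siRNA can sensitise only weakly.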 Unmarked entries are inactive. Further read-outs or replicates are left out here. No sequences are given here.

PKDREJ (polycystin family receptor for egg jelly) [SID164410420]
- log2 vehicle/camptothecin viability: -0.229

PKDREJ (polycystin family receptor for egg jelly) [SID164410421]
- log2 vehicle/camptothecin viability: 0.0558

PKDREJ (polycystin family receptor for egg jelly) [SID164410424]
- log2 vehicle/camptothecin viability: 0.0422

PKDREJ (polycystin family receptor for egg jelly) [SID164410425]
- log2 vehicle/camptothecin viability: 0.0254

ADCYAP1R1 (ADCYAP receptor type I) [SID164352360]
- log2 vehicle/camptothecin viability: -0.718

ADCYAP1R1 (ADCYAP receptor type I) [SID164352362]
- log2 vehicle/camptothecin viability: 0.474

ADCYAP1R1 (ADCYAP receptor type I) [SID164352363]
- log2 vehicle/camptothecin viability: -0.203

ADCYAP1R1 (ADCYAP receptor type I) [SID164352364]
- log2 vehicle/camptothecin viability: 0.165

WSB1 (WD repeat and SOCS box containing 1) [SID164458896]
- log2 vehicle/camptothecin viability: -0.105

WSB1 (WD repeat and SOCS box containing 1) [SID164458898]
- log2 vehicle/camptothecin viability: 0.301

WSB1 (WD repeat and SOCS box containing 1) [SID164458899]
- log2 vehicle/camptothecin viability: -0.0492

WSB1 (WD repeat and SOCS box containing 1) [SID164458900]
- log2 vehicle/camptothecin viability: -0.233

4 entries from above, arranged by “log2 vehicle/camptothecin viability”, highest first.
WSB1 (WD repeat and SOCS box containing 1) [SID164458898]
- log2 vehicle/camptothecin viability: 0.301

ADCYAP1R1 (ADCYAP receptor type I) [SID164352364]
- log2 vehicle/camptothecin viability: 0.165

WSB1 (WD repeat and SOCS box containing 1) [SID164458896]
- log2 vehicle/camptothecin viability: -0.105

ADCYAP1R1 (ADCYAP receptor type I) [SID164352363]
- log2 vehicle/camptothecin viability: -0.203

The results go on.
CYP11B2 (cytochrome P450 family 11 subfamily B member 2) [SID164360843]
- log2 vehicle/camptothecin viability: -0.65

CYP11B2 (cytochrome P450 family 11 subfamily B member 2) [SID164360844]
- log2 vehicle/camptothecin viability: -0.0234

CYP11B2 (cytochrome P450 family 11 subfamily B member 2) [SID164360846]
- log2 vehicle/camptothecin viability: -0.229

CYP11B2 (cytochrome P450 family 11 subfamily B member 2) [SID164360847]
- log2 vehicle/camptothecin viability: -0.334

TMPRSS3 (transmembrane serine protease 3) [SID164503664]
- log2 vehicle/camptothecin viability: -0.0232

TMPRSS3 (transmembrane serine protease 3) [SID164503665]
- log2 vehicle/camptothecin viability: 0.461

TMPRSS3 (transmembrane serine protease 3) [SID164503666]
- log2 vehicle/camptothecin viability: 0.295

OR4C6 (olfactory receptor family 4 subfamily C member 6) [SID164591438]
- log2 vehicle/camptothecin viability: -0.163

OR4C6 (olfactory receptor family 4 subfamily C member 6) [SID164591439]
- log2 vehicle/camptothecin viability: -0.0524

OR4C6 (olfactory receptor family 4 subfamily C member 6) [SID164591440]
- log2 vehicle/camptothecin viability: 0.0433

OR4C6 (olfactory receptor family 4 subfamily C member 6) [SID164591441]
- log2 vehicle/camptothecin viability: 0.247

CASP3 (caspase 3) [SID164356573]
- log2 vehicle/camptothecin viability: -0.134

CASP3 (caspase 3) [SID164356575]
- log2 vehicle/camptothecin viability: -0.964

CASP3 (caspase 3) [SID164356577]
- log2 vehicle/camptothecin viability: -0.111

CASP3 (caspase 3) [SID164356578]
- log2 vehicle/camptothecin viability: -0.243

PHF21B (PHD finger protein 21B) [SID164559609]
- log2 vehicle/camptothecin viability: -0.46

PHF21B (PHD finger protein 21B) [SID164559611]
- log2 vehicle/camptothecin viability: -0.291

PHF21B (PHD finger protein 21B) [SID164559613]
- log2 vehicle/camptothecin viability: 0.121

PHF21B (PHD finger protein 21B) [SID164559614]
- log2 vehicle/camptothecin viability: -0.838

IL38 (interleukin 38) [SID164545974]
- log2 vehicle/camptothecin viability: -0.592

IL38 (interleukin 38) [SID164545975]
- log2 vehicle/camptothecin viability: -0.408

IL38 (interleukin 38) [SID164545976]
- log2 vehicle/camptothecin viability: -0.323

IL38 (interleukin 38) [SID164545978]
- log2 vehicle/camptothecin viability: 0.136
